# In the supplement of paper PMC7666118:
# By UniProt entry, the sequences of proteins in these tests, tags left out. Where a name states a change or a piece, a line headed by the entry shows the natural chain unless it says otherwise.
# UniProt P61966: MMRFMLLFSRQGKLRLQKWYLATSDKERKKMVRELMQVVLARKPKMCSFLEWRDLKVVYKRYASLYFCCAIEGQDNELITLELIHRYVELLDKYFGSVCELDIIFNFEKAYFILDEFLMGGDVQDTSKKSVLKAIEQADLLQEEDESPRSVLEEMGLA
# UniProt Q9BWD1: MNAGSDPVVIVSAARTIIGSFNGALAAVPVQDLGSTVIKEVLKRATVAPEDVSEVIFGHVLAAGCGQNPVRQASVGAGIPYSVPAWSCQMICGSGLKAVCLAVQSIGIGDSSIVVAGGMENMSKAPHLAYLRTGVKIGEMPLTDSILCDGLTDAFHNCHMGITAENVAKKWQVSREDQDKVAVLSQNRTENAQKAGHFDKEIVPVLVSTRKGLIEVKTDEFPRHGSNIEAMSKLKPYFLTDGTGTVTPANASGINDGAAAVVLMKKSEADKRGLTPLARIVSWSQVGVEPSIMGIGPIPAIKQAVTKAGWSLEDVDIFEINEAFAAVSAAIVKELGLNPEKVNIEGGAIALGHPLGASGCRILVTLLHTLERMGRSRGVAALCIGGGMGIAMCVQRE
# UniProt Q9P2A4: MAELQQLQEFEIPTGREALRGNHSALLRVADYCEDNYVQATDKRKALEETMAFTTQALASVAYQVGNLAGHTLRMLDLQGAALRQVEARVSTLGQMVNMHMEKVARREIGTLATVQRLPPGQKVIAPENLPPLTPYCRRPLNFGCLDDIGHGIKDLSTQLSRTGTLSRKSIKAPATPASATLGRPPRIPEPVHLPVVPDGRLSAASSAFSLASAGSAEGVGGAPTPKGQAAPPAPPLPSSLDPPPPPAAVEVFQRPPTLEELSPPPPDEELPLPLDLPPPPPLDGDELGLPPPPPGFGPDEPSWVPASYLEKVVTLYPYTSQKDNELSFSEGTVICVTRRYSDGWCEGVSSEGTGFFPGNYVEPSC
# UniProt Q9UJX6, whole entry: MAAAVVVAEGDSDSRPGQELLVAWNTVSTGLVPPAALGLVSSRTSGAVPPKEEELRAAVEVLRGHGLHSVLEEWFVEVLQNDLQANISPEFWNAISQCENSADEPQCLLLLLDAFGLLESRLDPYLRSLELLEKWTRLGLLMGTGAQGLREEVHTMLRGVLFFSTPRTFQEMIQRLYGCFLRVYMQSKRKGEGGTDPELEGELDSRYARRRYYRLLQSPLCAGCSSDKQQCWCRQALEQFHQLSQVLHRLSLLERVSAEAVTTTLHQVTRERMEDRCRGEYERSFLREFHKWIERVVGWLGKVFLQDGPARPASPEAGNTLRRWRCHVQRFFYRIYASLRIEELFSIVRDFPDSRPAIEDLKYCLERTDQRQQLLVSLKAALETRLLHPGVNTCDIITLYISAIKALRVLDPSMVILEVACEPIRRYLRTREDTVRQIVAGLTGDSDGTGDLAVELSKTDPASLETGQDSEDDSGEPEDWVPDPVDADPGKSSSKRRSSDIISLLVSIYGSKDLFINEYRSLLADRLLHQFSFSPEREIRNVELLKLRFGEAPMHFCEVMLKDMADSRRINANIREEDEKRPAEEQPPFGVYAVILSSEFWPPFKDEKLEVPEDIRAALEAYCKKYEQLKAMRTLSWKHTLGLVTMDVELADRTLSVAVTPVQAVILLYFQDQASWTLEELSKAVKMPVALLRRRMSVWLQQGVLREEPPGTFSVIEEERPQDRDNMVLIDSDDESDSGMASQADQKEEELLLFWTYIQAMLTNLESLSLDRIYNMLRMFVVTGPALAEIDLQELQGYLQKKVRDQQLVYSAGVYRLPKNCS
# UniProt Q9Y312: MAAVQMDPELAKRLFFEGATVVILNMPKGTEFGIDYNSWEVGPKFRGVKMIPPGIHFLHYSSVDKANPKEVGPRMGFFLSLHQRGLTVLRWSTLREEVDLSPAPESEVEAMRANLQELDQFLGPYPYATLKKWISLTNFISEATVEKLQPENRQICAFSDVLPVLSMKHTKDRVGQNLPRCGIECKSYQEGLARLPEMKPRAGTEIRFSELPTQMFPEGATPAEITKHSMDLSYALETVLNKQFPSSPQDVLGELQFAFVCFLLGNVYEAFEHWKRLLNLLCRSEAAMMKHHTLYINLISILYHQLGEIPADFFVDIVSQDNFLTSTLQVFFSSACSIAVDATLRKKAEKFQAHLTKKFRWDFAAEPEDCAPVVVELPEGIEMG
# UniProt Q92688: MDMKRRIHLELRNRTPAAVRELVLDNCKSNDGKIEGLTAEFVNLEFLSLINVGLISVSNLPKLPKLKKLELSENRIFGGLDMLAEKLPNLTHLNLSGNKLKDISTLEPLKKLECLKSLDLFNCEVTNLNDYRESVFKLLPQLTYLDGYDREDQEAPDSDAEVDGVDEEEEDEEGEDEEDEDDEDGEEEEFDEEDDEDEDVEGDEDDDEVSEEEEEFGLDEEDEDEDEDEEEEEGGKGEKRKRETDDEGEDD
# UniProt P07311: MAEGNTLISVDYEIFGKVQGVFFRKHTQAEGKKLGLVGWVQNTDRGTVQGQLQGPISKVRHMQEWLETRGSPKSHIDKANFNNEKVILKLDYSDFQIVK
# UniProt Q96CW1: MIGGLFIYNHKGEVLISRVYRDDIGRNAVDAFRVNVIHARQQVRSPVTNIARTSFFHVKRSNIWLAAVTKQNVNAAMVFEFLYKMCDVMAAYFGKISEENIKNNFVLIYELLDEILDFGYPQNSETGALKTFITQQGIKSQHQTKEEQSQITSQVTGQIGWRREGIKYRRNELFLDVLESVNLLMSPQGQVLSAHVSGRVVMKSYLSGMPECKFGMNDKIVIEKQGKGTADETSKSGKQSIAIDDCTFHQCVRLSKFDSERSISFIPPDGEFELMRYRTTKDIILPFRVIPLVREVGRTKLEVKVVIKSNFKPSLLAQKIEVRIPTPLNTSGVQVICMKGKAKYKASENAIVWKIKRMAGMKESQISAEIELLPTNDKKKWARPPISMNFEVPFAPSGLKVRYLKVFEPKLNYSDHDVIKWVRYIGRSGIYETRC
# UniProt Q01432: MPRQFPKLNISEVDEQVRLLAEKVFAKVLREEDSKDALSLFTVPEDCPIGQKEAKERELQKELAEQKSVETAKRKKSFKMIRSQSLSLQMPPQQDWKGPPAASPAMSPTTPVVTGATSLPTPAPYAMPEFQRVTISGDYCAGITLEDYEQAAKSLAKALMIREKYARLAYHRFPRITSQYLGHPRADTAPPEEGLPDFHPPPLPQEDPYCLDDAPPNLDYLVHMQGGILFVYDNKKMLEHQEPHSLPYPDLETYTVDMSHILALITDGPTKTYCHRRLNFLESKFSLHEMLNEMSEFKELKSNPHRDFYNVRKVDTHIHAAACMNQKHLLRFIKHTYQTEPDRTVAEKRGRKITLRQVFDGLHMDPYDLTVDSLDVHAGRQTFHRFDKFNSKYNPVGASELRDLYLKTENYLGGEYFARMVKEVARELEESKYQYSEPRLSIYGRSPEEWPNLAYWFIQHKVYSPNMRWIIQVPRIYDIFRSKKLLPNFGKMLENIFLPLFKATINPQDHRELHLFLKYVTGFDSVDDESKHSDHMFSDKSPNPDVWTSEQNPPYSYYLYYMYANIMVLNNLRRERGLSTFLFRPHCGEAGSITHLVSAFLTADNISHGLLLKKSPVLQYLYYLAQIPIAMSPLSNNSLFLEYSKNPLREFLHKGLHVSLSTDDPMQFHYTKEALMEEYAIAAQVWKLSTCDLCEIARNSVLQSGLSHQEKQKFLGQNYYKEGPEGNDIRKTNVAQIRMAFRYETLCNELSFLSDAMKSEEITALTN
# UniProt Q4VCS5: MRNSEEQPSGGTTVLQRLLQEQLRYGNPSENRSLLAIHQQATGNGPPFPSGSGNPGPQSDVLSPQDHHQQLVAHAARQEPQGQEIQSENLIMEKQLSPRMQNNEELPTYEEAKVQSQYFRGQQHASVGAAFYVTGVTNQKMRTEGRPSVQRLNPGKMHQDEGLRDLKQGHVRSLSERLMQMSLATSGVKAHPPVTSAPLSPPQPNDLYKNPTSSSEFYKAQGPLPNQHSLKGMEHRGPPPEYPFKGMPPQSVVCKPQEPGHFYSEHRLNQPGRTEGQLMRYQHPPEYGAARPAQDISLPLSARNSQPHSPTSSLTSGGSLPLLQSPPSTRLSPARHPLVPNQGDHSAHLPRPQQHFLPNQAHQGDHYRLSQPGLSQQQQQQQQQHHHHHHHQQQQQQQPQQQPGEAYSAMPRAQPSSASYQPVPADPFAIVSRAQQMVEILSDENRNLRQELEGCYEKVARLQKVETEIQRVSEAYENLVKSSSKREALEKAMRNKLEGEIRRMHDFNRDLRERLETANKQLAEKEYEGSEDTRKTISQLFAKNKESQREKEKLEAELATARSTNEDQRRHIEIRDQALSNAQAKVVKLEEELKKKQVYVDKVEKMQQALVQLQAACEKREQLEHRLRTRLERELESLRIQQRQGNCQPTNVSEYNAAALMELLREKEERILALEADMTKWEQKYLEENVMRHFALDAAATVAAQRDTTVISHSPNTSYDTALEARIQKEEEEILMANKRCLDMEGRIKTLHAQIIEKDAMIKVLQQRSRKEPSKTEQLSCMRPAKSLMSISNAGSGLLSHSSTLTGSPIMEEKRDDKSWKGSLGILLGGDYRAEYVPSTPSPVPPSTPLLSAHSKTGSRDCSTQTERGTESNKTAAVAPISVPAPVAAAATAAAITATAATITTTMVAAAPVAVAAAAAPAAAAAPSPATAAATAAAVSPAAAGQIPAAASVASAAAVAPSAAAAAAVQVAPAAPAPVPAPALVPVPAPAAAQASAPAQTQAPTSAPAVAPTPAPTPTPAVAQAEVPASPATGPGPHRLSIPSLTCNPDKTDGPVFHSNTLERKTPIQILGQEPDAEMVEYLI
# UniProt O95782: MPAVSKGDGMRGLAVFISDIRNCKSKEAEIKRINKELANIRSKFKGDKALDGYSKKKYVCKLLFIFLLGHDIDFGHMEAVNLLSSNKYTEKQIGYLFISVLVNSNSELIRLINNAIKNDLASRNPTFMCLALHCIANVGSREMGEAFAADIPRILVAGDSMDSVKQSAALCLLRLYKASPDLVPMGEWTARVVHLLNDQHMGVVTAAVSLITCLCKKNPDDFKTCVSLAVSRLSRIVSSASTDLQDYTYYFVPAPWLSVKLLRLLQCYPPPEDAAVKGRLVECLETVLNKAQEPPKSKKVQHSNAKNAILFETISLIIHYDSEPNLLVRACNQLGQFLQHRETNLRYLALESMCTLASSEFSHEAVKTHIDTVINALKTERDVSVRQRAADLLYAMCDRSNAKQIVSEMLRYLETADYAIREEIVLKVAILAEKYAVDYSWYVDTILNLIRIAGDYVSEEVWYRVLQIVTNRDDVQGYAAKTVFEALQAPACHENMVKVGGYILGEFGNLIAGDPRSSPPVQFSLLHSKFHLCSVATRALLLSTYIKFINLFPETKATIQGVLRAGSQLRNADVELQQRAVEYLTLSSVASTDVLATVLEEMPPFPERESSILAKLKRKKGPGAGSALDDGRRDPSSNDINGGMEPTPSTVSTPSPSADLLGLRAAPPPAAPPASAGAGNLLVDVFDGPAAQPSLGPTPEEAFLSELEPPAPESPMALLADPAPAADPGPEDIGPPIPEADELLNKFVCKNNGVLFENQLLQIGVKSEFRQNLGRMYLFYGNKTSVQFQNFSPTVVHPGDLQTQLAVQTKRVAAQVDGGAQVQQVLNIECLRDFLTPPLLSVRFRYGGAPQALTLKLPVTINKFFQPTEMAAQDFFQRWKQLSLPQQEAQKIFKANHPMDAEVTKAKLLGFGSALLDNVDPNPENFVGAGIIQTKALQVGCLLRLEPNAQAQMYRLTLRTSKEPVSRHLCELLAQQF
# UniProt Q02410: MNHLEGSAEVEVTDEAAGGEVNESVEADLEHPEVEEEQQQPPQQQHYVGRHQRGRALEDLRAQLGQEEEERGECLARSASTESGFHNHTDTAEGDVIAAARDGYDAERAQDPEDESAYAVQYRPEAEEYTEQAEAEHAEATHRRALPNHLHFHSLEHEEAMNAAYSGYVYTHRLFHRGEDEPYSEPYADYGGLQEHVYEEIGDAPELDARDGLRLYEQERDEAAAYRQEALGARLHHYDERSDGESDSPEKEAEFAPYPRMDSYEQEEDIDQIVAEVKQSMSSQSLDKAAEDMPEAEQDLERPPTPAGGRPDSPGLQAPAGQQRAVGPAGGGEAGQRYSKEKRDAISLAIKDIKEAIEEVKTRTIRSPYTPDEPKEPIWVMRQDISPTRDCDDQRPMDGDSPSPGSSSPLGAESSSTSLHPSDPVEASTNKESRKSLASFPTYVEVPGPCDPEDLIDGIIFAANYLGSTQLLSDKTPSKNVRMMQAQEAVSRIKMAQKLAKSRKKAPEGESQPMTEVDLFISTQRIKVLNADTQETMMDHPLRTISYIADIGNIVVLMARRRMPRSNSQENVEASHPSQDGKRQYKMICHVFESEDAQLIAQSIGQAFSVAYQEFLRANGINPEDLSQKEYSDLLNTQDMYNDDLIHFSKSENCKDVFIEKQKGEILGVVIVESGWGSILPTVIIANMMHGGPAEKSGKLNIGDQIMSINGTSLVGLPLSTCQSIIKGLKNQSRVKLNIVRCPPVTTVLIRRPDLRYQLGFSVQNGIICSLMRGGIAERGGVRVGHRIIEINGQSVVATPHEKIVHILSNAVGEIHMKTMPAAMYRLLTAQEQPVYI
# The list shows a part of the results.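 The calls were made as follows: active = dose-dependent thermal stabilisation significant by F-test of dose-response against flat model at 10% FDR; inactive = not significant.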
# Compound: Nc1nc2c(ncn2[C@@H]2O[C@H](COP(=O)(O)OP(=O)(O)OP(=O)(O)O)[C@@H](O)[C@H]2O)c(=O)[nH]1
# Assay: dose-dependent thermal stabilisation call (2D-TPP, DLPTP, 10% FDR) (binary (1 = stabilised)); higher = stabilised by the compound
# Settings: system: Jurkat gel-filtered lysate; concentration range 1-500 µM
# Experimental: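 2D thermal proteome profiling in gel-filtered Jurkat E6.1 lysate (2 mg/ml) treated with NaGTP (0, 1, 10, 100, 500 uM) for 10 min at room temperature, then heated 3 min at one of 12 temperatures (42-63.9 C). Soluble protein was quantified by TMT10 MS. The value is the DLPTP call of the paper: dose-dependent thermal stabilisation over all temperatures at 10% FDR (F-test of a dose-response against a flat model); one experiment, one call per tested protein.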
row,Target,dose-dependent thermal stabilisation call
1,AIP (UniProt O00170),inactive: 0
2,AP3S1 (UniProt Q92572),active: 1
3,AP4E1 (UniProt Q9UPM8),inactive: 0
4,ACADS (UniProt P16219),inactive: 0
5,AFTPH (UniProt Q6ULP2),inactive: 0
6,AP1S1 (UniProt P61966),inactive: 0
7,ACBD6 (UniProt Q9BR61),inactive: 0
8,ACAT2 (UniProt Q9BWD1),inactive: 0
9,ABI3 (UniProt Q9P2A4),inactive: 0
10,AHCTF1 (UniProt Q8WYP5),inactive: 0
11,ANAPC2 (UniProt Q9UJX6),inactive: 0
12,AGL (UniProt P35573),inactive: 0
13,ADH5 (UniProt P11766),inactive: 0
14,AAR2 (UniProt Q9Y312),inactive: 0
15,ANP32B (UniProt Q92688),inactive: 0
16,AARS (UniProt P49588),inactive: 0
17,APPBP2 (UniProt Q92624),inactive: 0
18,ADSL (UniProt P30566),inactive: 0
19,ACYP1 (UniProt P07311),inactive: 0
20,APC (UniProt P25054),inactive: 0

row,Target,dose-dependent thermal stabilisation call
1,AP2M1 (UniProt Q96CW1),inactive: 0
2,AP2S1 (UniProt P53680),inactive: 0
3,ACOT7 (UniProt O00154),inactive: 0
4,ACD (UniProt Q96AP0),inactive: 0
5,AGO4 (UniProt Q9HCK5),inactive: 0
6,ADD3 (UniProt Q9UEY8),inactive: 0
7,ACTR10 (UniProt Q9NZ32),inactive: 0
8,AMPD3 (UniProt Q01432),inactive: 0
9,ARFGAP1 (UniProt Q8N6T3),inactive: 0
10,AMOT (UniProt Q4VCS5),inactive: 0
11,AP2A1 (UniProt O95782),active: 1
12,APBA1 (UniProt Q02410),inactive: 0
13,ADD1 (UniProt P35611),inactive: 0
14,ADO (UniProt Q96SZ5),inactive: 0
15,ACAA2 (UniProt P42765),inactive: 0
16,ARF3 (UniProt P61204),active: 1
17,AGGF1 (UniProt Q8N302),inactive: 0
18,ACTR2 (UniProt P61160),active: 1
19,ALDH16A1 (UniProt Q8IZ83),inactive: 0
20,ANP32E (UniProt Q9BTT0),inactive: 0

# A different layout for some results above.
row	Target	dose-dependent thermal stabilisation call
2	AP3S1 (UniProt Q92572)	active: 1
15	ANP32B (UniProt Q92688)	inactive: 0
